{"source": "paper PMC11375702", "about": "“Early Preclinical Studies of Ergosterol Peroxide and Biological Evaluation of Its Derivatives” (ACS Omega, 2024)", "system": "SUM149", "assay": "CellTiter-Glo 72 h cytotoxicity assay, SUM149", "assay_type": "cell-based, human", "conditions": "for TI (BJ/SUM149): EC50 BJ / EC50 SUM149; for LIPE: LiPE = pIC50 – log P, SUM149", "from_the_text": "First, topological polar surface area (tPSA), a widely used molecular descriptor that provides insight into compound absorption and membrane penetration, was theoretically calculated for these compounds along with the estimated c log P (partition coefficient) or log P to further assess their global therapeutic potential.[18],[19] Lipophilicity, a measurable and predictable physical property, can provide practical guidance in designing compounds with improved molecular properties.[20] The tPSA sums the contribution of the surface area of polar atoms, enabling us to determine whether the compounds are more likely to be cell membrane permeable. The aqueous solubility was measured by ultraviolet/visible (UV/vis) spectroscopy.[21] […] EP shares an improved cLogP, but still relatively high from a desirable drug candidate (2.5–3.5). […] Compound 4 has a higher c log P, while compounds 5–10 have lower c log P values. To determine LiPE (lipophilicity efficiency), the following formula was used: LiPE = pIC50 – log P, according to established methods.[22],[23] […] The obtained EC50 values for the newly generated EP derivatives were within a similar range for other derivatives previously described against TNBC models.[17]\nThe following stable human cell lines were utilized for this study: SUM149 and MDA-MB-231 (breast cancer models) and BJ (human normal fibroblast, foreskin). Cells were purchased from BioIVT or the American Type Culture Collection (ATCC). Cells were cultured in F-12-Nutrient Mixture (SUM149), DMEM (MDA-MB-231), or EMEM (BJ) medium supplemented with 10% fetal bovine serum (Sigma-Aldrich, St. Louis, MO) and 2 mmol of L-glutamine, at 37 °C in a humidified 5% CO2 atmosphere (no antibiotics) as indicated by the manufacturer. Cell cultures were grown to 80–90% confluence before use, except where otherwise specified. Our cell lines are authenticated every 3 months using the CellCheck service (Idexx BioResearch, Westbrook, ME). Cells were tested for mycoplasma prior to use (MycoAlert detection Kit Lonza LT07–318) and discarded if they tested positive. A cell proliferation assay was performed using the CellTiter-Glo (Promega Corp., Madison, WI) luminescent cell viability assay kit. Cells were detached with trypsin, counted, and seeded in white polystyrene flat-bottom sterile 96-well tissue culture-treated plates (catalog no. 3917, Corning, Glendale, Arizona) and incubated overnight at 37 °C. MDA-MB231, SUM149, and BJ cells were seeded into 96-well plates at concentrations experimentally determined (0.4 × 10^4, 0.25 × 10^4, and 0.3 × 10^4 cells per well, respectively) to ensure logarithmic growth during the duration of the experiment and to prevent adverse effects on cell growth by DMSO exposure. The plates were incubated for 12 h before treatment. Stock solutions of test compounds (10 mM in DMSO) in nine 3-fold serial dilutions were dispensed. The final concentration of DMSO was 0.3% (v/v) in each well. The positive control used was staurosporine (10 μM) as the kill-all control, and the negative control used is DMSO as we have published. Staurosporine is a potent alkaloid inducer of various cell death modalities but primarily apoptosis, making it a reliable positive control for viability assays. The plates were incubated for 72 h and then quenched with CTG at 50 μL per well at RT. Plates were then incubated at RT for 20 min and centrifuged at 1000 rpm for 1 min. Luminescence was read on a CLARIOstar Plus plate reader (BMG LabTech, Ortenberg, Germany).\nThree or four technical replicates were conducted for each experimental condition, and a minimum of three independent experiments were conducted for each assay. In vitro ADME values were expressed as mean ± standard deviation (SD) of at least three independent experiments. One-way analysis of variance (ANOVA) was adopted for comparisons among groups using the GraphPad Prism 10.2.3 (GraphPad Software, San Diego, CA). A difference of P < 0.05 was considered as statistically significant. […]", "data": [{"smiles": "CC(C)[C@@H](C)/C=C/[C@@H](C)[C@H]1CC[C@@H]2[C@]1(C)CC[C@H]1[C@]23C=C[C@]2(C[C@@H](OS(=O)(=O)O)CC[C@]12C)OO3", "note": "[Compound 9]", "values": [{"measurement": "TI (BJ/SUM149)", "result": ">18"}, {"measurement": "LIPE", "result": "–1.24"}]}, {"smiles": "CC(C)[C@@H](C)/C=C/[C@@H](C)[C@H]1CC[C@@H]2[C@]1(C)CC[C@H]1[C@]23C=C[C@]2(C[C@@H](OC(=O)NS(=O)(=O)c4ccccc4)CC[C@]12C)OO3", "note": "[Compound 7]", "values": [{"measurement": "TI (BJ/SUM149)", "result": ">8"}, {"measurement": "LIPE", "result": "–2.6"}]}, {"smiles": "CC(C)[C@@H](C)C(O)C(O)[C@@H](C)[C@H]1CC[C@@H]2[C@]1(C)CC[C@H]1[C@@]23OO[C@@]2(C[C@@H](O)CC[C@]12C)C(O)C3O", "note": "(stereo partly drawn) [Compound 8]", "values": [{"measurement": "TI (BJ/SUM149)", "result": ">26"}, {"measurement": "LIPE", "result": 2}]}, {"smiles": "CC(C)[C@@H](C)/C=C/[C@@H](C)[C@H]1CC[C@@H]2[C@]1(C)CC[C@H]1[C@]23C=C[C@]2(CC(=O)CC[C@]12C)OO3", "note": "[Compound 3]", "values": [{"measurement": "TI (BJ/SUM149)", "result": ">9"}, {"measurement": "LIPE", "result": "–1.54"}]}, {"smiles": "CC(C)[C@@H](C)/C=C/[C@@H](C)[C@H]1CC[C@@H]2[C@]1(C)CC[C@H]1[C@@]23OO[C@@]2(C[C@@H](O)CC[C@]12C)C(O)C3O", "note": "(stereo partly drawn) [Compound 6]", "values": [{"measurement": "TI (BJ/SUM149)", "result": ">9"}, {"measurement": "LIPE", "result": "–0.08"}]}, {"smiles": "CC(C)[C@@H](C)/C=C/[C@@H](C)[C@H]1CC[C@@H]2[C@]1(C)CC[C@H]1[C@]23C=C[C@]2(C[C@@H](O)CC[C@]12C)OO3", "note": "[Compound 2, Ergosterol peroxide]", "values": [{"measurement": "TI (BJ/SUM149)", "result": ">9"}, {"measurement": "LIPE", "result": "–1.28"}]}, {"smiles": "C=CC(=O)O[C@H]1CC[C@]2(C)[C@H]3CC[C@]4(C)[C@@H]([C@H](C)/C=C/[C@H](C)C(C)C)CC[C@H]4[C@@]34C=C[C@]2(C1)OO4", "note": "[Compound 4]", "values": [{"measurement": "TI (BJ/SUM149)", "result": ">2.5"}, {"measurement": "LIPE", "result": "–2.91"}]}, {"smiles": "CC(C)[C@@H](C)/C=C/[C@@H](C)[C@H]1CC[C@@H]2[C@]1(C)CC[C@H]1[C@@]23OO[C@@]2(C[C@@H](OS(=O)(=O)O)CC[C@]12C)C(OS(=O)(=O)O)C3OS(=O)(=O)O", "note": "(stereo partly drawn) [Compound 10]", "values": [{"measurement": "TI (BJ/SUM149)", "result": ">24"}, {"measurement": "LIPE", "result": "–0.07"}]}, {"smiles": "CC(C)[C@@H](C)C1OC1[C@@H](C)[C@H]1CC[C@@H]2[C@]1(C)CC[C@H]1[C@]23C=C[C@]2(C[C@@H](OS(=O)(=O)O)CC[C@]12C)OO3", "note": "(stereo partly drawn) [Compound 5a]", "values": [{"measurement": "TI (BJ/SUM149)", "result": ">15"}, {"measurement": "LIPE", "result": "–0.07"}]}, {"smiles": "CC(C)[C@@H](C)/C=C/[C@@H](C)[C@H]1CC[C@H]2C3=CC=C4C[C@@H](O)CC[C@]4(C)[C@H]3CC[C@]12C", "note": "[Compound 1, Ergosterol]", "values": [{"measurement": "LIPE", "result": "–2.72"}]}, {"smiles": "CC(C)[C@@H](C)C1OC1[C@@H](C)[C@H]1CC[C@@H]2[C@]1(C)CC[C@H]1[C@]23C=C[C@]2(C[C@@H](O)CC[C@]12C)OO3", "note": "(stereo partly drawn) [Compound 5]", "values": [{"measurement": "TI (BJ/SUM149)", "result": ">25"}, {"measurement": "LIPE", "result": 0.14}]}]}
